# Measured values published in the supplement of paper PMC4604168 (melanoma cell lines).
# The other results are listed elsewhere or left out. Single values are uncertain, as repeats are few or missing.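 Imaging used 1,536-well plates; nuclei positive for cleaved PARP by antibody were divided by total DNA-stained nuclei to yield the apoptosis fraction. Doses for screening kept most cells viable, and cell lines differ markedly in resting and induced cleaved-PARP levels.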
# Tested on: UACC62
# Assay: cleaved PARP positive nuclei fraction relative to DMSO control; melanoma cells; higher = more apoptosis
# Conditions: library dose: low library concentration; 72 h
row,SMILES,cleaved PARP positive nuclei fraction [%]
1,"CCCCCCCCCCCCCCCCCCOP(=O)([O-])OC1CC[N+](C)(C)CC1 [Perifosine] + C#Cc1cccc(Nc2ncnc3cc(OCCOC)c(OCCOC)cc23)c1 [erlotinib] (first compound 0.4 µM, partner dose 0.8 µM)",116
2,"COc1cc([C@@H]2c3cc4c(cc3[C@@H](O[C@@H]3O[C@@H]5CO[C@@H](C)O[C@H]5[C@H](O)[C@H]3O)[C@H]3COC(=O)[C@H]23)OCO4)cc(OC)c1O [etoposide] + C[C@]1(O)C[C@@H](c2nc(-c3ccc4ccc(-c5ccccc5)nc4c3)c3c(N)nccn32)C1 [OSI906] (first compound 0.02 µM, partner dose 0.4 µM)",64.6
3,"CCCCCCCCCCCCCCCCCCOP(=O)([O-])OC1CC[N+](C)(C)CC1 [Perifosine] + C[C@@H](N)c1ccc(C(=O)Nc2ccnc3[nH]ccc23)cc1 [RKI983] (first compound 0.4 µM, partner dose 0.4 µM)",58.8
4,"CCCCCCCCCCCCCCCCCCOP(=O)([O-])OC1CC[N+](C)(C)CC1 [Perifosine] + CCCS(=O)(=O)Nc1ccc(F)c(C(=O)c2c[nH]c3ncc(Cl)cc23)c1F [PLX4720] (first compound 0.4 µM, partner dose 0.08 µM)",66.1
5,"O=C(/C=C/c1cccnc1)NCCCCC1CCN(C(=O)c2ccccc2)CC1 + Cc1cc(Nc2cc(N3CCN(C)CC3)nc(/C=C/c3ccccc3)n2)n[nH]1 [ENMD2076] (first compound 0.01 µM, partner dose 0.04 µM)",101
6,"O=C(/C=C/c1cccnc1)NCCCCC1CCN(C(=O)c2ccccc2)CC1 + Clc1ccc(Nc2nnc(Cc3ccncc3)c3ccccc23)cc1 [vatalanib] (first compound 0.01 µM, partner dose 2 µM)",101
7,"Cc1cc(Nc2cc(N3CCN(C)CC3)nc(Sc3ccc(NC(=O)C4CC4)cc3)n2)n[nH]1 [Tozasertib] + CC1(C)CCC(c2ccc(Cl)cc2)=C(CN2CCN(c3ccc(C(=O)NS(=O)(=O)c4ccc(N[C@H](CCN5CCOCC5)CSc5ccccc5)c(S(=O)(=O)C(F)(F)F)c4)cc3)CC2)C1 [ABT263] (first compound 0.006 µM, partner dose 0.4 µM)",111
8,"CCCCCCCCCCCCCCCCCCOP(=O)([O-])OC1CC[N+](C)(C)CC1 [Perifosine] + NC(=O)c1ccc(N(C(N)=O)c2c(F)cccc2F)nc1-c1ccc(F)cc1F [VX702] (first compound 0.4 µM, partner dose 0.4 µM)",101
9,"CCCCCCCCCCCCCCCCCCOP(=O)([O-])OC1CC[N+](C)(C)CC1 [Perifosine] + CC(=O)c1c(C)c2cnc(Nc3ccc(N4CCNCC4)cn3)nc2n(C2CCCC2)c1=O [palbociclib] (first compound 0.4 µM, partner dose 0.04 µM)",134
10,"Cc1ccc(Nc2nccc(N(C)c3ccc4c(C)n(C)nc4c3)n2)cc1S(N)(=O)=O [Pazopanib] + O=C(O)c1ccc2c(c1)nc(Nc1cccc(Cl)c1)c1ccncc12 [CX4945] (first compound 0.4 µM, partner dose 0.4 µM)",49.5
11,"Cc1cn(-c2cc(NC(=O)c3ccc(C)c(Nc4nccc(-c5cccnc5)n4)c3)cc(C(F)(F)F)c2)cn1 [nilotinib] + C=C(c1ccc(C(=O)O)cc1)c1cc2c(cc1C)C(C)(C)CCC2(C)C [Bexarotene] (first compound 0.2 µM, partner dose 2 µM)",204
12,"Cc1cc(Nc2cc(N3CCN(C)CC3)nc(Sc3ccc(NC(=O)C4CC4)cc3)n2)n[nH]1 [Tozasertib] + O=C(O)[C@@H]1[O][Sb](=[O])([O][Sb]2(=[O])[O][C@H]([C@H](O)CO)[C@H](O)[C@H](C(=O)O)[O]2)[O][C@H]([C@H](O)CO)[C@@H]1O [stibogluconate] (first compound 0.006 µM, partner dose 2 µM)",24.2
13,"O=C(/C=C/c1cccnc1)NCCCCC1CCN(C(=O)c2ccccc2)CC1 + Nc1ccn([C@@H]2O[C@H](CO)[C@@H](O)C2(F)F)c(=O)n1 [gemcitabine] (first compound 0.01 µM, partner dose 0.0004 µM)",35.9
14,"O=C(/C=C/c1cccnc1)NCCCCC1CCN(C(=O)c2ccccc2)CC1 + O=C(O)c1ccc2c(c1)nc(Nc1cccc(Cl)c1)c1ccncc12 [CX4945] (first compound 0.01 µM, partner dose 0.4 µM)",152
15,"O=C(/C=C/c1cccnc1)NCCCCC1CCN(C(=O)c2ccccc2)CC1 + Cc1ccc(Nc2nccc(N(C)c3ccc4c(C)n(C)nc4c3)n2)cc1S(N)(=O)=O [Pazopanib] (first compound 0.01 µM, partner dose 0.4 µM)",116
16,"Cc1cc(Nc2cc(N3CCN(C)CC3)nc(Sc3ccc(NC(=O)C4CC4)cc3)n2)n[nH]1 [Tozasertib] + CC(C)C[C@H](NC(=O)[C@H](Cc1ccccc1)NC(=O)c1cnccn1)B(O)O [Bortezomib] (first compound 0.006 µM, partner dose 0.001 µM)",315
17,"Cc1ccc(Nc2nccc(N(C)c3ccc4c(C)n(C)nc4c3)n2)cc1S(N)(=O)=O [Pazopanib] + Cn1c(=O)n(-c2ccc(C(C)(C)C#N)cc2)c2c3cc(-c4cnc5ccccc5c4)ccc3ncc21 [NVP-BEZ235] (first compound 0.4 µM, partner dose 0.004 µM)",109
18,"Cc1cc(Nc2cc(N3CCN(C)CC3)nc(Sc3ccc(NC(=O)C4CC4)cc3)n2)n[nH]1 [Tozasertib] + CS(=O)(=O)CCNCc1ccc(-c2ccc3ncnc(Nc4ccc(OCc5cccc(F)c5)c(Cl)c4)c3c2)o1 [lapatinib] (first compound 0.006 µM, partner dose 0.8 µM)",48.4
19,"Cc1ccc(Nc2nccc(N(C)c3ccc4c(C)n(C)nc4c3)n2)cc1S(N)(=O)=O [Pazopanib] + Nc1nc(F)nc2c1ncn2[C@@H]1O[C@H](CO)[C@@H](O)[C@@H]1O [fludarabine] (first compound 0.4 µM, partner dose 0.2 µM)",60
20,"N#CC[C@H](C1CCCC1)n1cc(-c2ncnc3[nH]ccc23)cn1 [ruxolitinib] + CC(=O)c1c(C)c2cnc(Nc3ccc(N4CCNCC4)cn3)nc2n(C2CCCC2)c1=O [palbociclib] (first compound 1 µM, partner dose 0.04 µM)",135
21,"O=C(Nc1cc(C(F)(F)F)cc(C(F)(F)F)c1)c1cc(Cl)ccc1O + Nc1nc(F)nc2c1ncn2[C@@H]1O[C@H](CO)[C@@H](O)[C@@H]1O [fludarabine] (first compound 0.016 µM, partner dose 0.2 µM)",96.8
22,"O=C(Nc1cc(C(F)(F)F)cc(C(F)(F)F)c1)c1cc(Cl)ccc1O + O=C(/C=C/c1cccnc1)NCCCCC1CCN(C(=O)c2ccccc2)CC1 [FK866] (first compound 0.016 µM, partner dose 0.01 µM)",109

# Numbers 14 to 15 of the list above:
row,SMILES,cleaved PARP positive nuclei fraction [%]
14,"O=C(/C=C/c1cccnc1)NCCCCC1CCN(C(=O)c2ccccc2)CC1 + O=C(O)c1ccc2c(c1)nc(Nc1cccc(Cl)c1)c1ccncc12 [CX4945] (first compound 0.01 µM, partner dose 0.4 µM)",152
15,"O=C(/C=C/c1cccnc1)NCCCCC1CCN(C(=O)c2ccccc2)CC1 + Cc1ccc(Nc2nccc(N(C)c3ccc4c(C)n(C)nc4c3)n2)cc1S(N)(=O)=O [Pazopanib] (first compound 0.01 µM, partner dose 0.4 µM)",116
